The text below walks through data of publication PMC7819943, “Rice protein-binding microarrays: a tool to detect cis-acting elements near promoter regions in rice”.

The other results are listed elsewhere or left out.

The test addresses T1, OsSMF1 (Oryza sativa, UniProt Q6ZLB0 1-436).
T1 sequence: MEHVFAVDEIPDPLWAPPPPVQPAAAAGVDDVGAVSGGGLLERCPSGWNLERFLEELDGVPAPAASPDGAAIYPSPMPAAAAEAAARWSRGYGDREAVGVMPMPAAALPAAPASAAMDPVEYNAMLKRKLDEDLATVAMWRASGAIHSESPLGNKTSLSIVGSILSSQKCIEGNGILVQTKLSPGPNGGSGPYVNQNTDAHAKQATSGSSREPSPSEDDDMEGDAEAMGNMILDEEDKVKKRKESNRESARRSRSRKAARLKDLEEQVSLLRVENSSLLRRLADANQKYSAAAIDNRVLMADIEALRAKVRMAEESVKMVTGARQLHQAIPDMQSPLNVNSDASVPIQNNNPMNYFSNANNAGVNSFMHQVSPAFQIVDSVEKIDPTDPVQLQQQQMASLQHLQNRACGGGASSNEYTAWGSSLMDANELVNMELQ
Nature of the test: protein-binding microarray (RPBM); PBS, 2% BSA, 51.3 ng/ul salmon testes DNA, 50 uM zinc acetate, 200 nM TF, 25 C, 1 h; high values mean tight binding. The conditions noted are these: protein: recombinant; tags: N-terminal polyhistidine and DsRed monomer fusion (pET32a); chain copies: 2; label: CyDye5-dUTP incorporated in the synthesized complementary strand; 3' TTTTT single-stranded linker to array surface; dsDNA, one strand shown. An outline of the steps: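 Per-feature fluorescence intensity (arbitrary units), read on an Axon 4000B scanner, is the binding signal. Transcription factors carrying an N-terminal polyhistidine tag and DsRed fusion were expressed in E. coli BL21-CodonPlus and purified on Ni–NTA. A custom Agilent array, made double-stranded by primer extension with Cy5-dUTP and blocked with 2% BSA, was incubated with 200 nM protein in PBS, 2% BSA, salmon testes DNA and 50 µM zinc acetate at 25 °C for 1 h and then washed.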
Turning to “TAACATATATATATATATATATATATATATATATATATATCGGAGTCACCTAGTGCAG”, the binding signal is 3200 fluorescence intensity (a.u.).

With “TGTGGGCGGCCATACTTGCGGTGACAGTGTGACGCACATGCGGAGTCACCTAGTGCAG”, the binding signal is 6410 fluorescence intensity (a.u.).

Regarding “GAGGATCCGATTCCGCTATAGTGACACATGTCGGTGAACACGGAGTCACCTAGTGCAG”, the binding signal was 3450 fluorescence intensity (a.u.).

In the case of “TTGAATGTTTTCCAAAACGTAATATTTCAAATTAAGTTTGCGGAGTCACCTAGTGCAG”, the binding signal is 30500 fluorescence intensity (a.u.).

“TTTATTCTGCGCATTGGGATCAACTATGACAGGTCACTACCGGAGTCACCTAGTGCAG”: the binding signal was 6270 fluorescence intensity (a.u.).

Take “AAAATTTGAGAGAGTGGCATCTGAACACTGGCATTTTGAGCGGAGTCACCTAGTGCAG”: the binding signal was 4580 fluorescence intensity (a.u.).

With “TGCGTTGCCAGCTCATCCCGTGGGCCCCACCCAGCCGCCTCGGAGTCACCTAGTGCAG”, the binding signal was 8050 fluorescence intensity (a.u.).

Turning to “GTGTGGGCCCCACCTGGCAGTGAGTGCATGCTTGTGCTATCGGAGTCACCTAGTGCAG”, the binding signal was 3460 fluorescence intensity (a.u.).

As for “AGTAAATACAAAAGAAATCCTGTCAAAACTTGGTAATATTCGGAGTCACCTAGTGCAG”, the binding signal was 29700 fluorescence intensity (a.u.).

“TGATGCATGCTGCTATGGTGCTGACTAGCTAGCAACCAGCCGGAGTCACCTAGTGCAG”: the binding signal was 3250 fluorescence intensity (a.u.).

For “CGAGTATCTTCCCTTTCCTTGCGTGTAAAAGAAAGTCTCCCGGAGTCACCTAGTGCAG”, the binding signal is 4780 fluorescence intensity (a.u.).

As to “TGGGCATATGGCGTGTCATTACATCAAGCAGATCAAGCTGCGGAGTCACCTAGTGCAG”, the binding signal was 7260 fluorescence intensity (a.u.).

In the case of “ACCTGCTGTTCTGCCACACAAGCAAGCAACCGCCGCGGGTCGGAGTCACCTAGTGCAG”, the binding signal was 6140 fluorescence intensity (a.u.).

As to “TCCAGGGCGGCACGCCAGCGGCATCGGATAGGCGCGGAGCCGGAGTCACCTAGTGCAG”, the binding signal is 3380 fluorescence intensity (a.u.).

Turning to “GATGTGAATAATGCGTGACGTTGACGTGACATATCACGTACGGAGTCACCTAGTGCAG”, the binding signal is 7580 fluorescence intensity (a.u.).

As for “AGCCGTTACCTCGTCCTCGACACGCCATCCTTTTCCTCCCCGGAGTCACCTAGTGCAG”, the binding signal was 6780 fluorescence intensity (a.u.).

As for “ACTATACCGTCTAAAGATCCACTTGCAAAGATTTTCCAAGCGGAGTCACCTAGTGCAG”, the binding signal was 18800 fluorescence intensity (a.u.).

With “CTCTCACGGTGCAAGACGTGGAGCGTTATCTCGCGTGGCCCGGAGTCACCTAGTGCAG”, the binding signal was 3940 fluorescence intensity (a.u.).

For the sequence “GTCGTTTCTCTCTACCACGTGTACAGCAGCAGGTCAGCTGCGGAGTCACCTAGTGCAG”, the binding signal was 9350 fluorescence intensity (a.u.).

As to “AAGTACGGTCAACCTACCACGTTAGAGAAAACCGTTTTCCCGGAGTCACCTAGTGCAG”, the binding signal is 3270 fluorescence intensity (a.u.).

For “CCGCCGACATGGACGGCCGCCATGGCTCCTCGTTGATGGCCGGAGTCACCTAGTGCAG”, the binding signal is 3410 fluorescence intensity (a.u.).

As to “AGCAATAGTGGGACGGTAGATTGGCTGTCATCGTCACTACCGGAGTCACCTAGTGCAG”, the binding signal is 4010 fluorescence intensity (a.u.).

Take “TTGTTTACGTTTCGGCATCTACCAGACGTGTCCTCGACGCCGGAGTCACCTAGTGCAG”: the binding signal was 4780 fluorescence intensity (a.u.).

As to “GGATGCTGACGTTGTTCGCACCAGATTTCTGGACGCTGTCCGGAGTCACCTAGTGCAG”, the binding signal was 5860 fluorescence intensity (a.u.).

Take “CGTCCAGGCATGTGTTGGCAATCTTATCCCCAACGTTTCCCGGAGTCACCTAGTGCAG”: the binding signal is 3160 fluorescence intensity (a.u.).

Regarding “TTAGCCGACTAATTACGAAATGACACGTGTCAAGTTACAACGGAGTCACCTAGTGCAG”, the binding signal is 16800 fluorescence intensity (a.u.).

In the case of “GAAACTGCTCTTCCTACCCTCGCGTCCTTTGGCCTCGTCTCGGAGTCACCTAGTGCAG”, the binding signal is 3440 fluorescence intensity (a.u.).

Consider “CCGAGCGGCAAATTAATGTATGCCCGGCTTGTTGCGCCTACGGAGTCACCTAGTGCAG”, for which the binding signal is 3380 fluorescence intensity (a.u.).

Turning to “TTACTTGGCAGTATTCGGCATCTGAATATAGTGTCCCTTTCGGAGTCACCTAGTGCAG”, the binding signal was 26700 fluorescence intensity (a.u.).

Regarding “AGGATGCTACAAATTTCTTCGCTGTCAGATGTGATTGCCGCGGAGTCACCTAGTGCAG”, the binding signal is 15500 fluorescence intensity (a.u.).

Regarding “CTTCAGTTATGTTAATTACATGTCATTTGTTTTGTTACAACGGAGTCACCTAGTGCAG”, the binding signal was 4920 fluorescence intensity (a.u.).

Turning to “GCGCCGCGTCTGCTTTTGTCATATGATGCACGATTGTGCTCGGAGTCACCTAGTGCAG”, the binding signal is 3180 fluorescence intensity (a.u.).

With “CGAGCACCTCGCCCTCCAGCCACGCCACGGGGAGAAGATGCGGAGTCACCTAGTGCAG”, the binding signal is 5010 fluorescence intensity (a.u.).

For “TGTTCGACATGGCAGCTGAGTCAGCGTGGGACCCACGTGGCGGAGTCACCTAGTGCAG”, the binding signal was 16000 fluorescence intensity (a.u.).

Turning to “AAATTTGGAGATCGATTTTGCAATCTACAATGTGCCGATTCGGAGTCACCTAGTGCAG”, the binding signal is 3330 fluorescence intensity (a.u.).

As to “GCTGATTAGACTATGTCAATGATCCATGTCATCGAAATCCCGGAGTCACCTAGTGCAG”, the binding signal was 5120 fluorescence intensity (a.u.).

“CATCAATGATATTAGAATTATGATATATGCGATATCACATCGGAGTCACCTAGTGCAG”: the binding signal was 23800 fluorescence intensity (a.u.).

On to “GCTGCCAGCTCTCACTTTCTAGATAGCTCGAGGAGGTCAGCGGAGTCACCTAGTGCAG”, for which the binding signal is 3390 fluorescence intensity (a.u.).

Turning to “ACTGTCCTAATATCCTTTGTCACGAACGGTCGCCAAAGCGCGGAGTCACCTAGTGCAG”, the binding signal is 3170 fluorescence intensity (a.u.).

For the sequence “GCATATTGGCATGTATAGCGAAGCCCTAAACTATGACCCTCGGAGTCACCTAGTGCAG”, the binding signal was 3680 fluorescence intensity (a.u.).

On to “CGGTCGGCTGCCAGCTAAGCCGAGAGCAAACATTTCGTCACGGAGTCACCTAGTGCAG”, for which the binding signal is 4320 fluorescence intensity (a.u.).

“CCGCGCACCCCAGAATGGCACCGCCACGTGTCAGCTGAAGCGGAGTCACCTAGTGCAG”: the binding signal was 26300 fluorescence intensity (a.u.).
